Assay results reported in article PMC6988918.
No constants are given. Whether binding was seen depends on the method and setting. Binding seen in cells or lysates may run through a third protein. These calls come from enrichment with a bait or labelling near it, and not all partners need be listed.

Biological target: Akt (protein kinase B) (rat (endogenous in rat cardiomyocytes))
Assay: affinity purification with mass spectrometry; Akt precipitated with polyclonal Akt 1/2/3 antibody (sc-8312) and protein A-Sepharose from 1% NP-40 lysates of cardiomyocytes of control and MetS rats stimulated with 100 nM insulin for 10 min; label-free mass spectrometry of the immune complexes

| binding | Binder |
| --- | --- |
| binds | Protein RUFY3 (protein, UniProt Q5FVJ0 1-469) MSALTPPTDMPTPTTDKITQAAMETIYLCKFRVSMDGEWLCLRELDDISLTPDPEPTHEDPNYLMANERMNLMNMAKLSIKGLIESALNLGRTLDSDYAPLQQFFVVMEHCLKHGLKAKKTFLGQNKSFWGPLELVEKLVPEAAEITASVKDLPGLKTPVGRGRAWLRLALMQKKLSEYMKALINKKELLSEFYEANALMMEEEGAIIAGLLVGLNVIDANFCMKGEDLDSQVGVIDFSMYLKDGNSSKGSEGDGQITAILDQKNYVEELNRHLNATVNNLQAKVDALEKSNTKLTEELAVANNRIITLQEEMERVKEESSYLLESNRKGPKQDRTAEGQALSEARKHLKEETQLRLDVEKELELQISMRQEMELAMKMLEKDVCEKQDALVSLRQQLDDLRALKHELAFKLQSSDLGVKQKSELNSRLEEKTNQMAATIKQLEQSEKDLVKQAKTLNSAANKLIPKHH |
| binds | Sorting nexin-5 (protein, UniProt B1H267 1-404) MAAVPELLEQQEEDRSKLRSVSVDLNVDPSLQIDIPDALSERDKVKFTVHTKTTLPTFQSPEFSVTRQHEDFVWLHDTLTETTDYAGLIIPPAPTKPDFDGPREKMQKLGEGEGSMTKEEFAKMKQELEAEYLAVFKKTVSSHEVFLQRLSSHPVLSKDRNFHVFLEYDQDLSVRRKNTKEMFGGFFKSVVKSADEVLFSGVKEVDDFFEQEKNFLINYYNRIKDSCAKADKMTRSHKNVADDYIHTAACLHSLALEEPTVIKKYLLKVAELFEKLRKVEGRVSSDEDLKLTELLRYYMLNIEAAKDLLYRRTKALIDYENSNKALDKARLKSKDVKLAETHQQECCQKFEQLSESAKEELINFKRKRVAAFRKNLIEMSELEIKHARNNVSLLQSCIDLFKNN |

Continued, binder first:

| Binder | binding |
| --- | --- |
| MAGUK p55 subfamily member 2 (protein, UniProt D3ZAA9 1-552) MPVAATNSESAMQQVLDNLGSLPNATGAAELDLIFLRGIMESPIVRSLAKAHERLEETKLEAVRDNNLELVQEILRDLAELAEQSSTAAELARILQEPHFQSLLETHDSVASKTYETPPPSPGLDPTFSNQPVPPDAVRMVGIRKTAGEHLGVTFRVEGGELVIARILHGGMVAQQGLLHVGDIIKEVNGQPVGSDPRALQELLRSASGSVILKILPSYQEPHLPRQVFVKCHFDYDPARDSLIPCKEAGLRFNAGDLLQIVNQDDANWWQACHVEGGSAGLIPSQLLEEKRKAFVKRDLELTPTSGTLCGSLSGKKKKRMMYLTTKNAEFDRHELLIYEEVARMPPFRRKTLVLIGAQGVGRRSLKNKLILWDPDRYGTTVPYTSRRPKDSEREGQGYSFVSRGEMEADIRAGRYLEHGEYEGNLYGTRIDSIRGVVASGKVCVLDVNPQAVKVLRTAEFVPYVVFIEAPDFETLRAMNRAALESGVSTKQLTEADLRRTVEESSRIQRGYGHYFDLSLVNSNLERTFRELQTAMEKLRTEPQWVPVSWVY | binds |
| Dihydrolipoyl dehydrogenase, mitochondrial (protein, UniProt Q6P6R2 36-509) SDQPIDADVTVIGSGPGGYVAAIKAAQLGFKTVCIEKNETLGGTCLNVGCIPSKALLNNSHYYHLAHGKDFASRGIEIPEVRLNLEKMMEQKRSAVKALTGGIAHLFKQNKVVHVNGFGKITGKNQVTATTADGSTQVIGTKNILIATGSEVTPFPGITIDEDTIVSSTGALSLKKVPEKLVVIGAGVIGVELGSVWQRLGADVTAVEFLGHVGGIGIDMEISKNFQRILQKQGFKFKLNTKVTGATKKSDGKIDVSVEAASGGKAEVITCDVLLVCIGRRPFTQNLGLEELGIELDPKGRIPVNTRFQTKIPNIFAIGDVVAGPMLAHKAEDEGIICVEGMAGGAVHIDYNCVPSVIYTHPEVAWVGKSEEQLKEEGVEFKVGKFPFAANSRAKTNADTDGMVKILGHKSTDRILGAHILGPGAGEMVNEAALALEYGASCEDVARVCHAHPTLSEAFREANLAASFGKPINF | binds |
| ATP synthase subunit f, mitochondrial (protein, UniProt D3ZAF6 1-88) MASIVPLKEKKLMEVKLRELPSWILMRDFTPSGIAGAFRRGYDRYYNKYINVRKGSISGINMVLAAYVVFSYCISYKELKHERRRKYH | binds |
| Phosphate carrier protein, mitochondrial (protein, UniProt P16036 45-356) AVEGYSCEFGSMKYYALCGFGGVLSCGLTHTAVVPLDLVKCRMQVDPQKYKGIFNGFSITLKEDGVRGLAKGWAPTLIGYSMQGLCKFGFYEVFKALYSNILGEENTYLWRTSLYLAASASAEFFADIALAPMEAAKVRIQTQPGYANTLREAVPKMYKEEGLNAFYKGVAPVWMRQIPYTMMKFACFERTVEALYKFVVPKPRSECTKAEQLVVTFVAGYIAGVFCAIVSHPADSVVSVLNKEKGSTASQVLQRLGFRGVWKGLFARIIMIGTLTALQWFIYDSVKVYFRLPRPPPPEMPESLKKKLGLTE | binds |
| Adipocyte plasma membrane-associated protein (protein, UniProt Q7TP48 1-376) MTFLMLAVSLAIPLLGAMMLLESPIDPQSFSFKEPPFMFGVLQPNTKLRQAERLFENQLNGPESIVNIGDVLFTGTADGRVVKLENGEIETIARFGSGPCKTRDDEPTCGRPLGIRVGPNGTLFVVDAYKGLFEVNPQKRSVKLLLSSETPIEGKKMSFVNDLTITRDGRKIYFTDSSSKWQRRDYLLLVMEGTDDGRLLEYDTVTKEVKVLLDQLQFPNGVQLSPEEDFVLVAETAMARIRRVYVSGLMKGGADMFVENMPGFPDNIRPSSSGGYWVAAATIRANPGFSMLDFLSDKPFIKRMIFKLFSQETVMKFVPRYSLVLEVSDSGAFRRSLHDPDGQVVTYVSEAHEHDGYLYLGSFRSPFICRLSLQSI | binds |
| Neurofilament light polypeptide (protein, UniProt P19527 1-542) MSSFSYEPYFSTSYKRRYVETPRVHISSVRSGYSTARSAYSSYSAPVSSSLSVRRSYSSSSGSLMPSLENLDLSQVAAISNDLKSIRTQEKAQLQDLNDRFASFIERVHELEQQNKVLEAELLVLRQKHSEPSRFRALYEQEIRDLRLAAEDATNEKQALQGEREGLEETLRNLQARYEEEVLSREDAEGRLMEARKGADEAALARAELEKRIDSLMDEIAFLKKVHEEEIAELQAQIQYAQISVEMDVSSKPDLSAALKDIRAQYEKLAAKNMQNAEEWFKSRFTVLTESAAKNTDAVRAAKDEVSESRRLLKAKTLEIEACRGMNEALEKQLQELEDKQNADISAMQDTINKLENELRSTKSEMARYLKEYQDLLNVKMALDIEIAAYRKLLEGEETRLSFTSVGSITSGYSQSSQVFGRSAYSGLQSSSYLMSARAFPAYYTSHVQEEQSEVEETIEATKAEEAKDEPPSEGEAEEEEKEKEEGEEEEGAEEEEAAKDESEDAKEEEGGEGEEEDTKESEEEEKKEESAGEEQAAKKKD | binds |
